# Assay results as given in PubChem BioAssay AID504834 (National Center for Advancing Translational Sciences (NCATS), 2011).
# Screen size: about 320,000 compounds; about 22,000 (6.9%) were called active. Inconclusive means that the source gave no clear call. Such entries were picked first, then a sample of the others. Calls follow the shape of the dose curve; as a rule, active = well fitted inhibition curve with a large enough effect; inconclusive = small, poorly fitted or top-dose-only effect, or another doubt; inactive = no such curve, though single readings can be large or run the other way. Where the call is inconclusive, the potency comes from a doubtful curve fit.
# Experiment: Primary qHTS for delayed death inhibitors of the malarial parasite plastid, 96 hour incubation
# Conditions: P. falciparum luciferase reporter growth; series mostly up to 28.7 µM; activity change, negative = inhibition: at the top concentration
# Procedure, shortened: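 Compounds incubated with erythrocytes infected by luciferase-expressing P. falciparum (2% hematocrit, 0.05% parasitemia final) for 96 hours, 37 C in 5% CO2. Growth inhibition scored as decreased luciferase luminescence.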
# % is scaled to controls: 0 for no effect and ±100 for the full control effect; potency is read from the fitted curve at half-maximal effect.
Compound,Potency,"activity change, negative = inhibition"
CN(C)S(=O)(=O)N1CCC(Oc2cccc(C(=O)NC3CCCCCC3)c2)CC1,"inconclusive: 13.1 µM [inhibitor, single point]",–
CCOc1ccc(CCNC(=O)C2CC(=O)N(Cc3ccc(OC)cc3)C2)cc1OCC (stereo unspecified),"inconclusive: 18.5 µM [inhibitor, partial curve, poor fit]",–
O=C(CSc1n[nH]c(=O)n1-c1cccnc1)Nc1ccccc1,–,inactive: 29.4%
O=C(NC1CCNCC1)C1CCCCC1,"inconclusive: 11.7 µM [inhibitor, single point]",–
CC(=O)N1CCOc2ccc(S(=O)(=O)NCc3ccc(C)cc3)cc21,"inconclusive: 9.28 µM [inhibitor, partial curve, poor fit]",–
Cc1ccccc1CS(=O)(=O)Cc1ccc(C(=O)NCc2ccccn2)o1,–,inactive: 1.16%
CCOc1ccc(S(=O)(=O)N2CCCC(C(=O)N3CCOCC3)C2)cc1Cl (stereo unspecified),"inconclusive: 0.0738 µM [inhibitor, full curve]",–
CN(C)CCN(C(=O)CCS(=O)(=O)c1ccccc1)c1nc2c(F)cccc2s1,active: 2.62 µM,–
OC(C#CCN1CCCCCC1)(c1ccccc1)c1cccnc1 (stereo unspecified),active: 11.7 µM,–
CCCN1CCN(C(=O)C2CCN(S(=O)(=O)c3ccc4c(c3)oc(=O)n4C)CC2)CC1,"inconclusive: 0.522 µM [inhibitor, partial curve, poor fit]",–
O=C(CCN1C(=O)c2ccncc2C1=O)Nc1ccc(F)cc1,"inconclusive: 4.15 µM [inhibitor, single point]",–
Cc1ccc(C)c(NC(=O)CN(C)C(=O)c2ccccc2OCc2c(C)noc2C)c1,"inconclusive: 18.5 µM [inhibitor, single point]",–
CCCN(CCC)S(=O)(=O)c1ccc(Cl)c(OC)c1,–,inactive: 33.7%
COc1cc(CNCc2ccc(C)cc2)cc(OC)c1OC,"inconclusive: 18.5 µM [inhibitor, single point]",–
CN(Cc1ccccc1)C(=O)CNC(=O)C12CC3CC(CC(C3)C1)C2,"inconclusive: 18.5 µM [inhibitor, single point]",–
O=C(NN1CCN(Cc2ccccc2)CC1)c1ccc(Cl)cc1,–,inactive: -13.3%
COc1ccccc1/C=C/C(=O)OCC(=O)NC1CCCCCC1,–,inactive: -6.99%
CCc1ccccc1NC(=S)N(CCCN1CCOCC1)Cc1cccs1,active: 2.62 µM,–
CCCNC(=O)c1ccc(N2CCC3(CC2)CC(c2cccc(Br)c2)=NO3)c(NC(=O)c2ccccc2)c1,active: 11.7 µM,–
O=C(Cn1cc2c(n1)CCCC2)NCCc1ccccc1,"inconclusive: 18.5 µM [inhibitor, single point]",–
Cc1ccc(OC(C)C(=O)Nc2cc(C)on2)cc1 (stereo unspecified),active: 4.65 µM,–
CCOC(=O)CCNC(=O)N1CCCC(CNS(=O)(=O)c2cccs2)C1 (stereo unspecified),–,inactive: -12.1%
CNS(=O)(=O)c1ccc(NC(=O)c2csc(C)c2)cc1,"inconclusive: 6.57 µM [inhibitor, single point]",–
COc1cc(NC(=S)NCCc2ccccc2)c(OC)cc1NC(=O)C(C)C,"inconclusive: 0.0029 µM [inhibitor, full curve, poor fit]",–

Compound,Potency,"activity change, negative = inhibition"
CCOc1ccc(N2C(=O)Nc3ccccc3C2(O)C(=O)NCc2ccc(F)cc2)cc1 (stereo unspecified),"inconclusive: 11.7 µM [inhibitor, partial curve, poor fit]",–
O=C(Cc1ccc(S(=O)(=O)N2CCCCC2)s1)Nc1ccc(F)c(F)c1,"inconclusive: 18.5 µM [inhibitor, single point]",–
O=C(Cc1c[nH]c2ccccc12)NC1(C(=O)NC2CCCCC2)CCCCC1,"inconclusive: 9.28 µM [inhibitor, single point]",–
CC1=C(C(=O)OC2CCCCC2)C(c2ccc(C)o2)C2=C(CC(C)(C)CC2=O)N1 (stereo unspecified),–,inactive: -18.3%
COCCN=c1scc(-c2ccco2)n1/N=C/c1ccc(O)c(O)c1O,"inconclusive: 9.28 µM [inhibitor, single point]",–
Nc1sc(-c2ccccc2)cc1C(=O)O,–,inactive: -21.1%
O=C(Nc1cc(C(F)(F)F)ccc1N1CCCC1)C1CCCO1 (stereo unspecified),–,inactive: -20.1%
COc1ccc(NC(C)=O)cc1NC(C)c1nc2sc(C)c(C)c2c(=O)[nH]1 (stereo unspecified),"inconclusive: 13.1 µM [inhibitor, partial curve]",–
CC(C)n1c2ccccc2c2nnc(SCC(=O)Nc3ccccc3C(=O)O)nc21,–,inactive: -7.27%
Oc1ccc(-c2nc3ccccn3c2NCc2ccc3c(c2)OCO3)cc1,"inconclusive: 0.738 µM [inhibitor, full curve, poor fit]",–
CCOC(=O)C1=C(CC)Nc2ccccc2N/C1=N\S(=O)(=O)c1ccccc1OC,"inconclusive: 0.465 µM [inhibitor, full curve, poor fit]",–
COc1cccc(C(=O)Nc2ccc(NC(C)=O)cc2)c1,–,inactive: 58%
Cc1ccc(Cn2ccccc2=N)cc1,–,inactive: 22.6%
CC1(CCc2ccccc2)NC(=O)N(CC(=O)Nc2ccc3c(c2)OCCO3)C1=O (stereo unspecified),–,inactive: 3.07%
Cc1ccc(NC(=O)C(C)OC(=O)Cc2c[nH]c3ccccc23)cc1S(=O)(=O)N1CCOCC1 (stereo unspecified),"inconclusive: 2.94 µM [inhibitor, full curve]",–
COc1ccc(OCC(=O)NNC(=O)c2ccc3c(=O)n4c(nc3c2)CCC4)cc1,–,inactive: 7.58%
CC(=O)Nc1ccc(NC(=O)CSc2ncc(C(=O)Nc3ccc(F)cc3)c(=O)n2C)cc1,–,inactive: 35.6%
COc1ccc(Br)cc1CNC(=O)C1CCCN(c2nc3ccccc3o2)C1 (stereo unspecified),active: 5.86 µM,–
COc1ccccc1N1CCN(C(=O)CCNC(=O)Cn2ccc3ccccc3c2=O)CC1,"inconclusive: 0.262 µM [inhibitor, full curve, poor fit]",–
Cc1c(C(=O)NCc2ccccc2)c(-c2ccccc2)nn1-c1ccccc1,"inconclusive: 10.4 µM [inhibitor, single point]",–
O=C(Cn1cccn1)N1CCCC(N2CCN(Cc3ccc4c(c3)OCO4)CC2)C1 (stereo unspecified),"inconclusive: 3.29 µM [inhibitor, single point]",–
C=CCOC(=O)COc1ccc2c(C)c(CC)c(=O)oc2c1,"inconclusive: 3.7 µM [inhibitor, single point]",–
CCOC(=O)c1c(NC(=O)CN2C(=O)CN(C)C2=O)sc(C)c1C,"inconclusive: 0.37 µM [inhibitor, full curve, poor fit]",–
CCN(CC)c1ccc(S(=O)(=O)N2CCOCC2)cc1NC(=O)CSc1nnc(N)s1,"inconclusive: 4.65 µM [inhibitor, partial curve]",–

# Part of the list above in order of length of the SMILES, smallest number first:
Compound,Potency,"activity change, negative = inhibition"
COc1cc(CNCc2ccc(C)cc2)cc(OC)c1OC,"inconclusive: 18.5 µM [inhibitor, single point]",–
O=C(NN1CCN(Cc2ccccc2)CC1)c1ccc(Cl)cc1,–,inactive: -13.3%
CN(C)S(=O)(=O)N1CCC(Oc2cccc(C(=O)NC3CCCCCC3)c2)CC1,"inconclusive: 13.1 µM [inhibitor, single point]",–

# Remaining list, next part

Compound,Potency,"activity change, negative = inhibition"
COc1cc(C(=O)Nc2ccccn2)cc(OC)c1OC,–,inactive: 10.7% [at 5.75 µM]
NC(=O)c1ccc(-c2nnn(CC(=O)Nc3cccc(S(=O)(=O)N4CCCC4)c3)n2)cc1,–,inactive: -1.78%
Cc1c(C(=O)NC(C)c2ccccn2)oc2c(Cl)cccc12 (stereo unspecified),"inconclusive: 10.4 µM [inhibitor, single point]",–
CCCCN=CC1=C(O)C(C(=O)OC)C(C)(C)CC1=O (stereo unspecified),–,inactive: 4.34%
CCN(CC)C1CCN(C(=O)c2cc(COc3ccc(-n4cncn4)cc3)on2)C1 (stereo unspecified),–,inactive: -5.62%
O=[N+]([O-])c1ccccc1S(=O)(=O)Oc1ccc(/C=N/n2cnnc2)cc1,"inconclusive: 18.5 µM [inhibitor, single point]",–
C[C@@H]1CC=C[C@H]2[C@H]1C(=O)N(Cc1ccccc1)[C@H]2c1ccc2ccccc2c1,active: 3.7 µM,–
N#CCCN(C(=O)COc1ccc(Br)cc1F)c1ccc(F)cc1,"inconclusive: 3.7 µM [inhibitor, full curve, poor fit]",–
O=C(c1cc2cc(F)ccc2[nH]1)N1CCC(Cc2ccccc2)CC1,"inconclusive: 10.4 µM [inhibitor, single point]",–
O=C(NCC1CCN(S(=O)(=O)c2ccccc2)CC1)Nc1ccccc1,"inconclusive: 18.5 µM [inhibitor, single point]",–
Cc1cc[n+](CC(=O)Nc2nc3ccccc3s2)cc1,"inconclusive: 1.85 µM [inhibitor, full curve]",–
O=C(OCc1nc2scc(-c3ccccc3)c2c(=O)[nH]1)c1cccc([N+](=O)[O-])c1,"inconclusive: 20.8 µM [inhibitor, partial curve, poor fit]",–
Cc1c(C(=O)N2CCN(c3ccccn3)CC2)oc2c(F)cccc12,active: 2.33 µM,–
O=c1c(OC2OC(CO)C(O)C(O)C2OC2OC(CO)C(O)C(O)C2O)c(-c2ccc(O)cc2)oc2cc(O)cc(O)c12 (stereo unspecified),"inconclusive: 11.7 µM [inhibitor, single point]",–
COc1cc(SC)ccc1C(=O)Nc1cccc(S(=O)(=O)NC2=NCCC2)c1,"inconclusive: 10.4 µM [inhibitor, single point]",–
Cc1ccc(NC(=O)CCC(=O)N/N=C/c2cccnc2)cc1,active: 3.7 µM,–
CCOCCCn1c(SCC(=O)NC2CCCC2)nc2ccccc2c1=O,"inconclusive: 18.5 µM [inhibitor, single point]",–
CC(=O)c1nnn(-c2ccc(Cl)cc2C#N)c1C,–,inactive: 0.592%
COc1cc(/C=C2/SC(=O)N(CC(=O)N3CCCC3)C2=O)ccc1Oc1ccc([N+](=O)[O-])cn1,"inconclusive: 10.4 µM [inhibitor, single point]",–
CC(C)OCCCNc1ncnc2c1[nH]c1ccc(F)cc12,active: 0.185 µM,–
O=[N+]([O-])c1cc(NCCO)c(N2CCCCCC2)c2nonc12,"inconclusive: 3.29 µM [inhibitor, partial curve]",–
COCCN(CCOc1cc(C)cc(C)c1)Cc1ccc(Cl)cc1,"inconclusive: 0.0185 µM [inhibitor, partial curve, poor fit]",–
Cc1cc(NC(=O)CSc2ccc3nnc(CCNC(=O)c4ccccc4)n3n2)no1,"inconclusive: 18.5 µM [inhibitor, single point]",–
